± gives the uncertainty stated by the source. The uncertainty is large for many entries.
Assay: self-splicing fitness, log relative to wild type (ln ratio); higher = more splicing; Tetrahymena group I intron in knt gene, E. coli kanamycin selection, DiMSum; sequences stand for … in CUCUCU…GGAGGGAAAAGUUAUCAGGCAUGCACCUGGUAGCUAGUCUUUAAACCAAUAGAUUGCAUCGGUUUAAAAGGCAAGACCGUCAAAUUGCGGGAAAGGGGUCAACAGCCGUUCAGUACCAAGUCUCAGGGGAAACUUUGAGAUGGCCUUGCAAAGGGUAUGGUAAUAAGCUGACGGACAUGGUCCUAACCACGCAGCCAAGUCCUAAGUCAACAGAUCUUCUGUUGAUAUGGAUGCAGUUCACAGACUAAAUGUCGGUCGGGGAAGAUGUAUUCUUCUCAUAAGAUAUAGUCGGACCUCUCCUUAAUGGGAGCUAGCGGAUGAAGUGAUGCAACACUGGAGCCGCUGGGAACUAAUUUGUAUGCGAAAGUAUAUUGAUUAGUUUUGGAGUACUCGUGGUCG
Outline: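 Six replicate transformations of E. coli BL21(DE3) with a pET-22b(+) library were grown overnight at 37°C or 30°C. The library randomised all eight P1ex-region intron nucleotides, the intron lying in the knt kanamycin-resistance gene, and plates were LB agar with or without 25 μg/mL kanamycin plus 100 μg/mL carbenicillin, 50 μM IPTG and 0.2% rhamnose. Pooled colonies were amplicon-sequenced on an Illumina HiSeq 2500, and fitness is the DiMSum error-weighted combination of wild-type-normalised replicate fold changes, kanamycin versus none.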

Sequence: GAGUAGCAAUAUUACGGACU
- self-splicing fitness (ln) (30 °C): -0.25 ± 0.072
- self-splicing fitness (ln) (37 °C): -0.487 ± 0.096

Sequence: UCCGAGCAAUAUUACGACCG
- self-splicing fitness (ln) (37 °C): -0.927 ± 1.2

Sequence: GGUUAGCAAUAUUACGGGAA
- self-splicing fitness (ln) (30 °C): -0.855 ± 0.58
- self-splicing fitness (ln) (37 °C): -2.35 ± 0.57

Sequence: GAUAAGCAAUAUUACGCCAG
- self-splicing fitness (ln) (30 °C): -2.86 ± 0.54
- self-splicing fitness (ln) (37 °C): -2.01 ± 0.51

Sequence: GGAGAGCAAUAUUACGACCG
- self-splicing fitness (ln) (30 °C): -2.6 ± 0.59
- self-splicing fitness (ln) (37 °C): -1.98 ± 1.1

Sequence: AAUGAGCAAUAUUACGAUCC
- self-splicing fitness (ln) (30 °C): -3.85 ± 0.6
- self-splicing fitness (ln) (37 °C): -3.15 ± 1

Sequence: CCGUAGCAAUAUUACGCCCC
- self-splicing fitness (ln) (30 °C): -2.7 ± 0.76
- self-splicing fitness (ln) (37 °C): -2.27 ± 0.84

Sequence: CCAUAGCAAUAUUACGCCGC
- self-splicing fitness (ln) (37 °C): -2.48 ± 0.55

Sequence: UGUUAGCAAUAUUACGAGGA
- self-splicing fitness (ln) (30 °C): -4.25 ± 0.61

Sequence: UCGCAGCAAUAUUACGCUCC
- self-splicing fitness (ln) (37 °C): -1.34 ± 0.52

Sequence: GGGGAGCAAUAUUACGUAUU
- self-splicing fitness (ln) (30 °C): -4.3 ± 0.59

Sequence: CUGUAGCAAUAUUACGAGCC
- self-splicing fitness (ln) (37 °C): 0.694 ± 1.1

Sequence: CUGAAGCAAUAUUACGGCGC
- self-splicing fitness (ln) (30 °C): -4.98 ± 1
- self-splicing fitness (ln) (37 °C): -3.33 ± 0.6

Sequence: GUUAAGCAAUAUUACGUCAC
- self-splicing fitness (ln) (30 °C): -1.61 ± 0.51

Sequence: GUCGAGCAAUAUUACGGCUU
- self-splicing fitness (ln) (30 °C): -2.87 ± 0.53

Sequence: UCCGAGCAAUAUUACGUCCC
- self-splicing fitness (ln) (30 °C): -3.83 ± 1
- self-splicing fitness (ln) (37 °C): -1.71 ± 0.54

Sequence: GAAGAGCAAUAUUACGGCCA
- self-splicing fitness (ln) (30 °C): -1.59 ± 0.3
- self-splicing fitness (ln) (37 °C): -1.27 ± 0.5

Sequence: CCCAAGCAAUAUUACGCUUC
- self-splicing fitness (ln) (30 °C): -2.84 ± 0.18
- self-splicing fitness (ln) (37 °C): -3.15 ± 0.43

Sequence: GAUGAGCAAUAUUACGAGGC
- self-splicing fitness (ln) (30 °C): -1.61 ± 0.76
- self-splicing fitness (ln) (37 °C): -1.04 ± 0.71

Sequence: UCCGAGCAAUAUUACGCCCU
- self-splicing fitness (ln) (37 °C): -2.72 ± 0.54

Sequence: UAUGAGCAAUAUUACGAAAC
- self-splicing fitness (ln) (37 °C): -2.84 ± 0.53

Sequence: AUGGAGCAAUAUUACGUUGA
- self-splicing fitness (ln) (30 °C): -3.85 ± 0.74

Sequence: CACCAGCAAUAUUACGCGAC
- self-splicing fitness (ln) (30 °C): -4.31 ± 0.2
- self-splicing fitness (ln) (37 °C): -2.89 ± 0.23

Sequence: UGUUAGCAAUAUUACGCUCC
- self-splicing fitness (ln) (30 °C): 0.558 ± 1.1
- self-splicing fitness (ln) (37 °C): 0.216 ± 0.84

Sequence: CGAGAGCAAUAUUACGUCAA
- self-splicing fitness (ln) (30 °C): -3.22 ± 0.21
- self-splicing fitness (ln) (37 °C): -2.4 ± 0.27

Sequence: UCUGAGCAAUAUUACGAGCA
- self-splicing fitness (ln) (30 °C): -2.71 ± 0.54

Sequence: CUCUAGCAAUAUUACGCCAC
- self-splicing fitness (ln) (30 °C): -2.66 ± 0.28
- self-splicing fitness (ln) (37 °C): -3.69 ± 1

Sequence: UCGCAGCAAUAUUACGACCC
- self-splicing fitness (ln) (37 °C): -1.76 ± 0.86

Sequence: CACGAGCAAUAUUACGCAGC
- self-splicing fitness (ln) (30 °C): -3.73 ± 0.59
- self-splicing fitness (ln) (37 °C): -1.29 ± 0.35

Sequence: CAGGAGCAAUAUUACGAAUC
- self-splicing fitness (ln) (30 °C): -4.11 ± 0.75
- self-splicing fitness (ln) (37 °C): -2.9 ± 0.61

Sequence: CGCGAGCAAUAUUACGUUCG
- self-splicing fitness (ln) (30 °C): -3.21 ± 0.79
- self-splicing fitness (ln) (37 °C): -1.06 ± 0.8

Sequence: GAUUAGCAAUAUUACGCCAC
- self-splicing fitness (ln) (30 °C): -3.71 ± 0.59
- self-splicing fitness (ln) (37 °C): -1.1 ± 0.66

Sequence: GUUAAGCAAUAUUACGUCAG
- self-splicing fitness (ln) (30 °C): -3.43 ± 0.53

Sequence: AGGGAGCAAUAUUACGUUCC
- self-splicing fitness (ln) (30 °C): -4.14 ± 0.59

Sequence: CUGAAGCAAUAUUACGCAAC
- self-splicing fitness (ln) (30 °C): -4.79 ± 0.59

Sequence: UCUUAGCAAUAUUACGGUUA
- self-splicing fitness (ln) (30 °C): -2.94 ± 0.57

Sequence: UAGGAGCAAUAUUACGGCCG
- self-splicing fitness (ln) (30 °C): -0.725 ± 0.75
- self-splicing fitness (ln) (37 °C): -0.292 ± 0.93

Sequence: UAGGAGCAAUAUUACGCGGG
- self-splicing fitness (ln) (30 °C): -4.56 ± 0.51

Sequence: UUUGAGCAAUAUUACGACAC
- self-splicing fitness (ln) (30 °C): -2.21 ± 0.79
- self-splicing fitness (ln) (37 °C): -1.47 ± 0.83

Sequence: UUGUAGCAAUAUUACGAUCC
- self-splicing fitness (ln) (30 °C): -0.986 ± 0.87

Sequence: UACGAGCAAUAUUACGUACC
- self-splicing fitness (ln) (30 °C): -4.49 ± 1

Sequence: UAGCAGCAAUAUUACGAUCG
- self-splicing fitness (ln) (30 °C): -0.76 ± 0.093
- self-splicing fitness (ln) (37 °C): -0.0334 ± 0.12

Sequence: GGGGAGCAAUAUUACGAGGG
- self-splicing fitness (ln) (37 °C): -3.08 ± 0.74

Sequence: AAAGAGCAAUAUUACGCGCC
- self-splicing fitness (ln) (30 °C): -3.82 ± 0.74
- self-splicing fitness (ln) (37 °C): -2.39 ± 0.77

Sequence: UCGAAGCAAUAUUACGAGAC
- self-splicing fitness (ln) (37 °C): -3.57 ± 0.73

Sequence: CAUGAGCAAUAUUACGGACG
- self-splicing fitness (ln) (30 °C): -0.912 ± 0.087
- self-splicing fitness (ln) (37 °C): -0.391 ± 0.11

Sequence: UGUUAGCAAUAUUACGGAAC
- self-splicing fitness (ln) (30 °C): -2.79 ± 1.2
- self-splicing fitness (ln) (37 °C): -0.182 ± 0.73

Sequence: GACCAGCAAUAUUACGCCAU
- self-splicing fitness (ln) (30 °C): -3.59 ± 0.17
- self-splicing fitness (ln) (37 °C): -2.09 ± 0.13

Sequence: UAGUAGCAAUAUUACGUAUG
- self-splicing fitness (ln) (30 °C): -1.82 ± 0.1
- self-splicing fitness (ln) (37 °C): -0.711 ± 0.12

Sequence: GGGUAGCAAUAUUACGGCCC
- self-splicing fitness (ln) (37 °C): -0.693 ± 1.4

Sequence: UUCGAGCAAUAUUACGCCAC
- self-splicing fitness (ln) (30 °C): -2.2 ± 0.84

Sequence: CGAGAGCAAUAUUACGAACU
- self-splicing fitness (ln) (30 °C): -3.58 ± 0.6
- self-splicing fitness (ln) (37 °C): -1.75 ± 0.59

Sequence: CUUCAGCAAUAUUACGCCGG
- self-splicing fitness (ln) (37 °C): -1.59 ± 0.7

Sequence: CUGUAGCAAUAUUACGACAC
- self-splicing fitness (ln) (30 °C): -4.36 ± 0.51

Sequence: CUAAAGCAAUAUUACGUCCA
- self-splicing fitness (ln) (30 °C): -3.01 ± 0.19
- self-splicing fitness (ln) (37 °C): -2.79 ± 0.31

Sequence: CCCGAGCAAUAUUACGAAGC
- self-splicing fitness (ln) (37 °C): -2.39 ± 0.77

From the supplement of paper PMC7877785
